The target of this experiment is T1, FLAG-tagged full-length PDZD8, stably expressed in MEFs (human) (UniProt Q8NEN9).
T1 sequence: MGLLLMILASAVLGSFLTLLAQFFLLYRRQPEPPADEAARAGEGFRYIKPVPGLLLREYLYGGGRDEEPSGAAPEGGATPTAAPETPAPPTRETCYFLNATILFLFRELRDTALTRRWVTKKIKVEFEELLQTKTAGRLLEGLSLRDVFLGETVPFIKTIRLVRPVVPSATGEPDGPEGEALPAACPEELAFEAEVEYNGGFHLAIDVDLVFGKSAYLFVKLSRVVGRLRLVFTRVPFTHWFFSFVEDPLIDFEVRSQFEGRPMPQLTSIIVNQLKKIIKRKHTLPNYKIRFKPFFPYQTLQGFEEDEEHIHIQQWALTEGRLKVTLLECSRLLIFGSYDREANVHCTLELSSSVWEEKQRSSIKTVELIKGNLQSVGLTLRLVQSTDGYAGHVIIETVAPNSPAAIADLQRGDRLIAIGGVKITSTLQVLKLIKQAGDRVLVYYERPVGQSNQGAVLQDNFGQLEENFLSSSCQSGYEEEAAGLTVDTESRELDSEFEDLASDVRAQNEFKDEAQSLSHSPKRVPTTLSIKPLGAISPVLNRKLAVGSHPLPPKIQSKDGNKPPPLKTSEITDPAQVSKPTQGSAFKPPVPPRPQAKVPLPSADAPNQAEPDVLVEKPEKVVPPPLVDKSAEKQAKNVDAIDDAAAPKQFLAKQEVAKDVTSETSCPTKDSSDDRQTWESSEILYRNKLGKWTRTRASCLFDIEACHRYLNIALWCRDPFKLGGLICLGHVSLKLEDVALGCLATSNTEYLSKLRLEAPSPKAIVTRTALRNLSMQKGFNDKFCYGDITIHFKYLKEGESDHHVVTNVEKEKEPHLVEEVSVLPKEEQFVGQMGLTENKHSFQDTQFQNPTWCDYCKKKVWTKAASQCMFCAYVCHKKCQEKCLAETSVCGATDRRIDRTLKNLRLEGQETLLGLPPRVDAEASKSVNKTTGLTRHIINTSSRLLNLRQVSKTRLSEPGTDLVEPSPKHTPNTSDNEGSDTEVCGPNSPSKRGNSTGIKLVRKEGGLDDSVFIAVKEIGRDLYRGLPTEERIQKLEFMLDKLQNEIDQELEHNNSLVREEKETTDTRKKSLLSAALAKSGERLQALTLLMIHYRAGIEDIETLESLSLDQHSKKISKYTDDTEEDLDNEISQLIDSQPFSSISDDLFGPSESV
Briefly: co-IP; MEFs stably expressing FLAG-tagged PDZD8, Triton lysis buffer (20 mM Tris-HCl pH 7.5, 150 mM NaCl, 1% Triton X-100), anti-FLAG M2 gel, elution with FLAG peptide, blot for endogenous 14-3-3.

These are yes or no findings as the source states them, for the method shown. In cells and extracts the contact can be indirect. Binding can be weak; no strength is given. Sequences can lack the tags named with a protein.

Regarding “chaperone protein 14-3-3, endogenous in MEFs (mouse (endogenous in MEFs))”, the binding result is recorded as “binds”.

The values above are taken from PMC11442470.
